Measured values reported in PMC10082800.
Results are given in words; binding and its absence hold for the method and conditions named. Binding seen in cells or lysates may run through a third protein. Some binding calls cover weakened binding; strength is not graded here. Where a sequence is shown, tags or fusion partners need not be part of it.

Amino acid sequences for entries named in this document (tags omitted).
UniProt P51617: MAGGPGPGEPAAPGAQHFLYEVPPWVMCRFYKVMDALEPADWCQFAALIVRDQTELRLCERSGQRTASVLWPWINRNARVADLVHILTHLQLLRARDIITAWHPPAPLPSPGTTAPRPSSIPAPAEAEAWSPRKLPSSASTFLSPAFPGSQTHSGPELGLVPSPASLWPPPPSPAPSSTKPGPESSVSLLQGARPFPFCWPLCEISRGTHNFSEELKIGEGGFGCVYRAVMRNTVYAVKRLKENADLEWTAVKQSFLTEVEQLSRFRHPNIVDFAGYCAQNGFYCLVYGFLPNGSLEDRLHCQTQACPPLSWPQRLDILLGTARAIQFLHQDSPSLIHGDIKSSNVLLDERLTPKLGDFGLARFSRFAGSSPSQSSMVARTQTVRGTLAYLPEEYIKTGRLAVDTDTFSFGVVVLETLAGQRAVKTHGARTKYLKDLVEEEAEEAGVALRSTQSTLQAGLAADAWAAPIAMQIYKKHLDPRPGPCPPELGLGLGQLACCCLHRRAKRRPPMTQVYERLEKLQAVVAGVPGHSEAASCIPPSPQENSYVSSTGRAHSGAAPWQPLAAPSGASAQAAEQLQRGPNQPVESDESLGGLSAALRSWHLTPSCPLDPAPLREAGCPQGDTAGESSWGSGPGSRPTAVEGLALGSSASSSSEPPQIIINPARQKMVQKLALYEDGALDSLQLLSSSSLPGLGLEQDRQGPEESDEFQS

Legend:
[1] = target: T1, Myc-PRDX1 (human) (UniProt Q06830); experiment: co-IP; tagged proteins transiently co-transfected into 293T cells; for HECTD3 constructs IP with anti-Myc antibody; Western blotting
T1 sequence: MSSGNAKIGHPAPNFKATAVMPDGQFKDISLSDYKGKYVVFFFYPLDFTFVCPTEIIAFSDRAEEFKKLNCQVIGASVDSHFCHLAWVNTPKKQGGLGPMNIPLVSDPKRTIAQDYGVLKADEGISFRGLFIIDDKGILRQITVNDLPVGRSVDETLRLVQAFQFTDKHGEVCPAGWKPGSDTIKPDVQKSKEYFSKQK

[2] = target: T2, GST-PRDX1 fusion protein (UniProt Q06830); experiment: pull-down; purified GST-PRDX1 incubated with total protein of 293T cells overexpressing Flag-IRAK1 at 4 °C overnight, glutathione-sepharose beads 2 h, Western blotting; only the target purified
T2 sequence: T1 sequence

- binding [1]: binds
- binding [2]: binds
Substance: Flag-IRAK1 (from UniProt P51617 1-712)
